Reference: article doi:10.1101/2024.12.02.626147
Results are given in words; binding and its absence hold for the method and conditions named. Binding seen in cells or lysates may run through a third protein. Some entries that bind do so weakly or less than the wild type.

By UniProt entry, the sequences of proteins in these tests, tags left out.
UniProt Q61188: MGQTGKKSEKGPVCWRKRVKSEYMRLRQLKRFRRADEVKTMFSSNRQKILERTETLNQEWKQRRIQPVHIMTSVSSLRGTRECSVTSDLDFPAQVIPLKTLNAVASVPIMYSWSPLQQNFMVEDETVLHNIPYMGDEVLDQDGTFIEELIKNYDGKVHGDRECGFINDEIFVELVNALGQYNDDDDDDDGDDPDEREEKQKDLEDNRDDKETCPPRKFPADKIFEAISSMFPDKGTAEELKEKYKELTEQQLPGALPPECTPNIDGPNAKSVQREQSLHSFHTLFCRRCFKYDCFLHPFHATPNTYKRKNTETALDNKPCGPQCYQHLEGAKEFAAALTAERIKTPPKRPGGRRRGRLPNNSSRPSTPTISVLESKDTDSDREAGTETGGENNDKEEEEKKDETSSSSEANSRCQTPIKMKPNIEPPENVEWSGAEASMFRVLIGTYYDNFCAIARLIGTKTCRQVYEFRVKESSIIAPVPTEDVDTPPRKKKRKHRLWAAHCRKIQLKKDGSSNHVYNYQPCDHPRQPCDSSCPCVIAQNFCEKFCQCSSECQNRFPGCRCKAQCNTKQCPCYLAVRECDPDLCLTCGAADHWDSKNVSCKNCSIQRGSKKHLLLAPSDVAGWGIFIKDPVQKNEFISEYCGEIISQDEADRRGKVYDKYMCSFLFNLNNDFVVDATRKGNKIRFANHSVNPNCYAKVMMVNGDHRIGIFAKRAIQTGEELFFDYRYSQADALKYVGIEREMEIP

Molecular target: T1, Nanog (mouse (endogenous in E14Tg2a)) (UniProt Q80Z64)
T1 sequence: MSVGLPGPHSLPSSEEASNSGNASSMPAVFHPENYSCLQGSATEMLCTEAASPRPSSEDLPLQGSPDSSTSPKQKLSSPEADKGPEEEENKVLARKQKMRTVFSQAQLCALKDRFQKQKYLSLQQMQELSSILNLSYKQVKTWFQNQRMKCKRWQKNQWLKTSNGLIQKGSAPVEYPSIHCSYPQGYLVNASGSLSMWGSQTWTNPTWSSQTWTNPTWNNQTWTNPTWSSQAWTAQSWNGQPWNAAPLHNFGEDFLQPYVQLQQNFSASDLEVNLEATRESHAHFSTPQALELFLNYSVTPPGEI
Test: co-IP

## Ezh2 (from UniProt Q61188 1-746)
  binding: binds
